Assay results from the supplement of paper PMC4604168 (melanoma cell lines).
This is one part of the list. Single values are uncertain, as repeats are few or missing.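 The apoptosis fraction was the count of cleaved-PARP antibody-stained nuclei relative to all DNA-stained nuclei, imaged in 1,536-well plates. Screening doses were set so most cells survived, and baseline and induced cleaved-PARP levels vary greatly across cell lines.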

Columns and labels:
Test in all cases: cleaved PARP positive nuclei fraction relative to DMSO control; melanoma cells; higher = more apoptosis
Settings in all cases: library dose: low library concentration; 72 h
CBRC034 = system: CBRC034 (line from a melanoma biopsy)
COLO792 = system: COLO792
COLO800 = system: COLO800
COLO829 = system: COLO829
G361 = system: G361
IPC-298 = system: IPC-298
IST-MEL1 = system: IST-MEL1
LB2518-MEL = system: LB2518-MEL
LOXIMVI = system: LOXIMVI
MEL-HO = system: MEL-HO

Compound | cleaved PARP positive nuclei fraction (CBRC034) | cleaved PARP positive nuclei fraction (COLO792) | cleaved PARP positive nuclei fraction (COLO800) | cleaved PARP positive nuclei fraction (COLO829) | cleaved PARP positive nuclei fraction (G361) | cleaved PARP positive nuclei fraction (IPC-298) | cleaved PARP positive nuclei fraction (IST-MEL1) | cleaved PARP positive nuclei fraction (LB2518-MEL) | cleaved PARP positive nuclei fraction (LOXIMVI) | cleaved PARP positive nuclei fraction (MEL-HO)
CCN(CC)CCNC(=O)c1c(C)[nH]c(/C=C2\C(=O)Nc3ccc(F)cc32)c1C [sunitinib] + CC(C)C[C@H](NC(=O)[C@H](Cc1ccccc1)NC(=O)c1cnccn1)B(O)O [Bortezomib] (first compound 0.4 µM, partner dose 0.001 µM) | 78.9% | 92% | 101% | 112% | 460% | 95.1% | 81.7% | 299% | 27.1% | 168%
NC1(c2ccc(-c3nc4ccn5c(=O)[nH]nc5c4cc3-c3ccccc3)cc2)CCC1 + C[C@@H](Oc1cc(-c2cnn(C3CCNCC3)c2)cnc1N)c1c(Cl)ccc(F)c1Cl [Crizotinib] (first compound 0.4 µM, partner dose 0.2 µM) | 89.5% | 143% | 95.3% | 92.1% | 163% | 81.7% | 64.9% | 104% | 142% | 53.1%
NC(=O)c1ccc(N(C(N)=O)c2c(F)cccc2F)nc1-c1ccc(F)cc1F + Cn1c(=O)n(-c2ccc(C(C)(C)C#N)cc2)c2c3cc(-c4cnc5ccccc5c4)ccc3ncc21 [NVP-BEZ235] (first compound 0.4 µM, partner dose 0.004 µM) | 90.3% | 90.2% | 75.2% | 111% | 133% | 53.9% | 136% | 102% | 53.2% | 313%
COc1ccc(C2=N[C@@H](c3ccc(Cl)cc3)[C@@H](c3ccc(Cl)cc3)N2C(=O)N2CCNC(=O)C2)c(OC(C)C)c1 [Nutlin-3] + C[C@]1(c2nc3c(C(N)=O)cccc3[nH]2)CCCN1 [Veliparib] (first compound 0.1 µM, partner dose 1.4 µM) | 135% | 86.2% | 120% | 136% | 37.9% | 129% | 90.4% | 127% | 154% | 77.2%
C[C@]1(O)C[C@@H](c2nc(-c3ccc4ccc(-c5ccccc5)nc4c3)c3c(N)nccn32)C1 + CCCS(=O)(=O)Nc1ccc(F)c(C(=O)c2c[nH]c3ncc(Cl)cc23)c1F [PLX4720] (first compound 0.4 µM, partner dose 0.08 µM) | 149% | 104% | 186% | 86.6% | 226% | 127% | 22.7% | 196% | 81.2% | 98.4%
CCN(CC)CCNC(=O)c1c(C)[nH]c(/C=C2\C(=O)Nc3ccc(F)cc32)c1C [sunitinib] + Cn1c(=O)n(-c2ccc(C(C)(C)C#N)cc2)c2c3cc(-c4cnc5ccccc5c4)ccc3ncc21 [NVP-BEZ235] (first compound 0.4 µM, partner dose 0.004 µM) | 26.7% | 78.2% | 113% | 93.4% | 126% | 41.4% | 32.9% | 267% | 33.9% | 57.7%
C[C@@H](N)c1ccc(C(=O)Nc2ccnc3[nH]ccc23)cc1 + C#Cc1cccc(Nc2ncnc3cc(OCCOC)c(OCCOC)cc23)c1 [erlotinib] (first compound 0.4 µM, partner dose 0.8 µM) | 143% | 111% | 74.3% | 130% | 91.2% | 45.8% | 67.5% | 106% | 120% | 113%
CCCCCCCCc1ccc(CCC(N)(CO)CO)cc1 [fingolimod] + Nc1ccn([C@@H]2O[C@H](CO)[C@@H](O)C2(F)F)c(=O)n1 [gemcitabine] (first compound 2 µM, partner dose 0.0004 µM) | 70.5% | 67.5% | 76% | 118% | 73.6% | 230% | 107% | 47.5% | 312% | 89.9%
CS(=O)(=O)c1ccc(C(=O)Nc2ccc(Cl)c(-c3ccccn3)c2)c(Cl)c1 [vismodegib] + Nc1cccc2c1CN(C1CCC(=O)NC1=O)C2=O [lenalidomide] (first compound 1 µM, partner dose 1 µM) | 94.5% | 65.6% | 89.9% | 31.6% | 83.9% | 46.7% | 252% | 38.9% | 178% | 55.3%
CS(=O)(=O)c1ccc(C(=O)Nc2ccc(Cl)c(-c3ccccn3)c2)c(Cl)c1 [vismodegib] + Nc1ccn([C@@H]2O[C@H](CO)[C@@H](O)C2(F)F)c(=O)n1 [gemcitabine] (first compound 1 µM, partner dose 0.0004 µM) | 61.8% | 164% | 96.6% | 53.4% | 108% | 42.9% | 110% | 98.8% | 91.5% | 109%
CC(=O)O[C@@]12CO[C@@H]1C[C@H](O)[C@@]1(C)C(=O)[C@H](O)C3=C(C)[C@@H](OC(=O)[C@H](O)[C@@H](NC(=O)OC(C)(C)C)c4ccccc4)C[C@@](O)([C@@H](OC(=O)c4ccccc4)[C@H]21)C3(C)C [Docetaxel] + Cn1c(Nc2ccc(C(F)(F)F)cc2)nc2cc(Oc3ccnc(-c4ncc(C(F)(F)F)[nH]4)c3)ccc21 [CHIR265] (first compound 0.0001 µM, partner dose 0.08 µM) | 122% | 699% | 238% | 175% | 600% | 446% | 57.8% | 310% | 73.7% | 76.8%
CC(=O)O[C@@]12CO[C@@H]1C[C@H](O)[C@@]1(C)C(=O)[C@H](O)C3=C(C)[C@@H](OC(=O)[C@H](O)[C@@H](NC(=O)OC(C)(C)C)c4ccccc4)C[C@@](O)([C@@H](OC(=O)c4ccccc4)[C@H]21)C3(C)C [Docetaxel] + NC1(c2ccc(-c3nc4ccn5c(=O)[nH]nc5c4cc3-c3ccccc3)cc2)CCC1 [MK2206] (first compound 0.0001 µM, partner dose 0.4 µM) | 193% | 606% | 417% | 363% | 523% | 635% | 288% | 326% | 177% | 361%
COc1ccc(C2=N[C@@H](c3ccc(Cl)cc3)[C@@H](c3ccc(Cl)cc3)N2C(=O)N2CCNC(=O)C2)c(OC(C)C)c1 [Nutlin-3] + CC(=O)O[C@@]12CO[C@@H]1C[C@H](O)[C@@]1(C)C(=O)[C@H](O)C3=C(C)[C@@H](OC(=O)[C@H](O)[C@@H](NC(=O)OC(C)(C)C)c4ccccc4)C[C@@](O)([C@@H](OC(=O)c4ccccc4)[C@H]21)C3(C)C [Docetaxel] (first compound 0.1 µM, partner dose 0.0001 µM) | 61.9% | 483% | 169% | 178% | 473% | 122% | 193% | 278% | 88% | 40.5%
CS(=O)(=O)c1ccc(C(=O)Nc2ccc(Cl)c(-c3ccccn3)c2)c(Cl)c1 [vismodegib] + Cn1c(=O)n(-c2ccc(C(C)(C)C#N)cc2)c2c3cc(-c4cnc5ccccc5c4)ccc3ncc21 [NVP-BEZ235] (first compound 1 µM, partner dose 0.004 µM) | 68.9% | 92% | 98.2% | 119% | 183% | 82.2% | 185% | 52.9% | 137% | 149%
C[C@]1(O)C[C@@H](c2nc(-c3ccc4ccc(-c5ccccc5)nc4c3)c3c(N)nccn32)C1 + CC(C)C[C@H](NC(=O)[C@H](Cc1ccccc1)NC(=O)c1cnccn1)B(O)O [Bortezomib] (first compound 0.4 µM, partner dose 0.001 µM) | 114% | 41.5% | 171% | 194% | 281% | 63% | 108% | 64.1% | 206% | 58.5%
Cn1sc(=O)n(Cc2ccccc2)c1=O + C#Cc1cccc(Nc2ncnc3cc(OCCOC)c(OCCOC)cc23)c1 [erlotinib] (first compound 0.4 µM, partner dose 0.8 µM) | 128% | 162% | 136% | 191% | 172% | 120% | 41.2% | 110% | 79.6% | 74.9%
CN(c1ncccc1CNc1nc(Nc2ccc3c(c2)CC(=O)N3)ncc1C(F)(F)F)S(C)(=O)=O + Nc1cccc2c1CN(C1CCC(=O)NC1=O)C2=O [lenalidomide] (first compound 0.08 µM, partner dose 1 µM) | 169% | 92.9% | 122% | 102% | 156% | 162% | 128% | 113% | 70.1% | 61.9%
NC(=O)c1ccc(N(C(N)=O)c2c(F)cccc2F)nc1-c1ccc(F)cc1F + C[C@]1(O)C[C@@H](c2nc(-c3ccc4ccc(-c5ccccc5)nc4c3)c3c(N)nccn32)C1 [OSI906] (first compound 0.4 µM, partner dose 0.4 µM) | 60.5% | 61.1% | 186% | 30.7% | 48.7% | 187% | 133% | 127% | 150% | 41.6%
CC1(C)CCC(c2ccc(Cl)cc2)=C(CN2CCN(c3ccc(C(=O)NS(=O)(=O)c4ccc(N[C@H](CCN5CCOCC5)CSc5ccccc5)c(S(=O)(=O)C(F)(F)F)c4)cc3)CC2)C1 + Nc1ccn([C@@H]2O[C@H](CO)[C@@H](O)C2(F)F)c(=O)n1 [gemcitabine] (first compound 0.4 µM, partner dose 0.0004 µM) | 271% | 274% | 90.2% | 117% | 244% | 151% | 107% | 135% | 258% | 97.5%

An excerpt of these results, tab-delimited.
Compound	cleaved PARP positive nuclei fraction (CBRC034)	cleaved PARP positive nuclei fraction (COLO792)	cleaved PARP positive nuclei fraction (COLO800)	cleaved PARP positive nuclei fraction (COLO829)	cleaved PARP positive nuclei fraction (G361)	cleaved PARP positive nuclei fraction (IPC-298)	cleaved PARP positive nuclei fraction (IST-MEL1)	cleaved PARP positive nuclei fraction (LB2518-MEL)	cleaved PARP positive nuclei fraction (LOXIMVI)	cleaved PARP positive nuclei fraction (MEL-HO)
NC(=O)c1ccc(N(C(N)=O)c2c(F)cccc2F)nc1-c1ccc(F)cc1F + Cn1c(=O)n(-c2ccc(C(C)(C)C#N)cc2)c2c3cc(-c4cnc5ccccc5c4)ccc3ncc21 [NVP-BEZ235] (first compound 0.4 µM, partner dose 0.004 µM)	90.3%	90.2%	75.2%	111%	133%	53.9%	136%	102%	53.2%	313%
COc1ccc(C2=N[C@@H](c3ccc(Cl)cc3)[C@@H](c3ccc(Cl)cc3)N2C(=O)N2CCNC(=O)C2)c(OC(C)C)c1 [Nutlin-3] + C[C@]1(c2nc3c(C(N)=O)cccc3[nH]2)CCCN1 [Veliparib] (first compound 0.1 µM, partner dose 1.4 µM)	135%	86.2%	120%	136%	37.9%	129%	90.4%	127%	154%	77.2%
C[C@]1(O)C[C@@H](c2nc(-c3ccc4ccc(-c5ccccc5)nc4c3)c3c(N)nccn32)C1 + CCCS(=O)(=O)Nc1ccc(F)c(C(=O)c2c[nH]c3ncc(Cl)cc23)c1F [PLX4720] (first compound 0.4 µM, partner dose 0.08 µM)	149%	104%	186%	86.6%	226%	127%	22.7%	196%	81.2%	98.4%
